From paper PMC8225996 (Frontiers in Cardiovascular Medicine, 2021)
No constants are given. Whether binding was seen depends on the method and setting. In cells and extracts the contact can be indirect. Some entries that bind do so weakly or less than the wild type.

By UniProt entry, the sequences of proteins in these tests, tags left out. Residues count along the entry.
UniProt Q8R0I0, residues 18-805: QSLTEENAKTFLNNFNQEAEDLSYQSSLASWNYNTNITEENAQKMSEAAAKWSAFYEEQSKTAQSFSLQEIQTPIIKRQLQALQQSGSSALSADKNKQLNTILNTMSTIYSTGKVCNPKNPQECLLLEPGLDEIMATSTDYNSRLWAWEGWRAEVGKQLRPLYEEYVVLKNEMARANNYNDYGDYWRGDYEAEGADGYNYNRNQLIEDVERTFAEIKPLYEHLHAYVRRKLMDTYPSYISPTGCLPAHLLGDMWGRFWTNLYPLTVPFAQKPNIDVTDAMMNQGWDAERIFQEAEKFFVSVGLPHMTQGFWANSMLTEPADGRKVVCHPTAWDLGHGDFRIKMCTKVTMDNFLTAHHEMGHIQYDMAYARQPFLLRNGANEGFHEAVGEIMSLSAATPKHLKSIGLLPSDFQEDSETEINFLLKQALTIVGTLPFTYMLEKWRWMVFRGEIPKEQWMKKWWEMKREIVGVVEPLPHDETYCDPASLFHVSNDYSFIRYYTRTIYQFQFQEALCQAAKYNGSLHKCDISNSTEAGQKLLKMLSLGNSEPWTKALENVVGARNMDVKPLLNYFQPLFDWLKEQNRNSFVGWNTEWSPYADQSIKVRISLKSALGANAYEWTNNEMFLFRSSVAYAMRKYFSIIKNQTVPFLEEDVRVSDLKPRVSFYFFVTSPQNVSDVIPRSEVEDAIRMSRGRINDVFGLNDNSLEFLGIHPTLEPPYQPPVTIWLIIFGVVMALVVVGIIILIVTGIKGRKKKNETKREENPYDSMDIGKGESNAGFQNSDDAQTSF
UniProt P23242: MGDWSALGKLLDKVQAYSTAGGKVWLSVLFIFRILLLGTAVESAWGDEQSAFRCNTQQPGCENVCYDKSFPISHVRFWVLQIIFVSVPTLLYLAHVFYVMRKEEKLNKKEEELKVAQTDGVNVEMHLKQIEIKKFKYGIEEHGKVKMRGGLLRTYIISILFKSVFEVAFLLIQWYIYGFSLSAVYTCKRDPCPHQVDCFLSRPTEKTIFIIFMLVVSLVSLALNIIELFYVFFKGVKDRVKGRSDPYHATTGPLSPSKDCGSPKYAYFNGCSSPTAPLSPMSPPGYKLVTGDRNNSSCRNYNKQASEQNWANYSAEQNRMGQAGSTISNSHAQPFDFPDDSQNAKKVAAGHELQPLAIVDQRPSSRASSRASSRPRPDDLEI

What was measured:
[1] = target: T1, Rab5a (mouse (endogenous in primary brain microvascular endothelial cells)) (UniProt Q9CQD1); assay: co-IP; Rab5a antibody (2 ug) with 150 ug lysate of untreated control endothelial cells; Catch and Release spin columns, 18 h at 4 C; Western blot for the partners
T1 sequence: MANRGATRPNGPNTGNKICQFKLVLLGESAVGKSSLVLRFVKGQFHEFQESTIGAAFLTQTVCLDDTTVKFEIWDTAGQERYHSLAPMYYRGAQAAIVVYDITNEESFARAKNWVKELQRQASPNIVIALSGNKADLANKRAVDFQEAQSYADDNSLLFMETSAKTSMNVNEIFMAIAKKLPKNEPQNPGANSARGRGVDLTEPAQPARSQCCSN

[2] = target: T1, Rab5a (mouse (endogenous in primary brain microvascular endothelial cells)); assay: co-IP; Rab5a antibody (2 ug) with 150 ug lysate of control endothelial cells treated with 10 ug/ml Spike for 12 h; Catch and Release spin columns, 18 h at 4 C; Western blot for the partners
[3] = target: Angiotensin converting enzyme 2 (mouse (endogenous in primary brain microvascular endothelial cells)) (UniProt Q8R0I0); assay: co-IP; ACE2 antibody (2 ug) with 150 ug lysate of untreated control endothelial cells; Catch and Release spin columns, 18 h at 4 C; blots probed for Rab5a
[4] = target: Angiotensin converting enzyme 2 (mouse (endogenous in primary brain microvascular endothelial cells)) (UniProt Q8R0I0); assay: co-IP; control and diabetic (db/db) endothelial cells treated with non-targeting or Rab5a siRNA for 24 h; precipitating antibody not stated for this experiment

Molecule: Connexin-43 (from UniProt P23242 1-382)
- binding [1]: binds

Molecule: Angiotensin converting enzyme 2 (from UniProt Q8R0I0 18-805) (receptor)
- binding [1]: no binding (condition: cells without Spike treatment)
- binding [2]: binds

B1: PECAM-1 (protein, UniProt Q08481 18-727)
chain: EENSFTINSIHMESLPSWEVMNGQQLTLECLVDISTTSKSRSQHRVLFYKDDAMVYNVTSREHTESYVIPQARVFHSGKYKCTVMLNNKEKTTIEYEVKVHGVSKPKVTLDKKEVTEGGVVTVNCSLQEEKPPIFFKIEKLEVGTKFVKRRIDKTSNENFVLMEFPIEAQDHVLVFRCQAGILSGFKLQESEPIRSEYVTVQESFSTPKFEIKPPGMIIEGDQLHIRCIVQVTHLVQEFTEIIIQKDKAIVATSKQSSEAVYSVMAMVEYSGHYTCKVESNRISKASSIMVNITELFPKPKLEFSSSRLDQGELLDLSCSVSGTPVANFTIQKEETVLSQYQNFSKIAEESDSGEYSCTAGIGKVVKRSGLVPIQVCEMLSKPSIFHDAKSEIIKGHAIGISCQSENGTAPITYHLMKAKSDFQTLEVTSNDPATFTDKPTRDMEYQCRADNCHSHPAVFSEILRVRVIAPVDEVVISILSSNEVQSGSEMVLRCSVKEGTSPITFQFYKEKEDRPFHQAVVNDTQAFWHNKQASKKQEGQYYCTASNRASSMRTSPRSSTLAVRVFLAPWKKGLIAVVVIGVVIATLIVAAKCYFLRKAKAKQKPVEMSRPAAPLLNSNSEKISEPSVEANSHYGYDDVSGNDAVKPINQNKDPQNMDVEYTEVEVSSLEPHQALGTRATETVYSEIRKVDPNLMENRYSRTEGSLNGT
- binding [1]: no binding (condition: cells without Spike treatment)
- binding [2]: binds

B2: Rab5a (natural protein, UniProt Q9CQD1 1-215, looked up)
chain: MANRGATRPNGPNTGNKICQFKLVLLGESAVGKSSLVLRFVKGQFHEFQESTIGAAFLTQTVCLDDTTVKFEIWDTAGQERYHSLAPMYYRGAQAAIVVYDITNEESFARAKNWVKELQRQASPNIVIALSGNKADLANKRAVDFQEAQSYADDNSLLFMETSAKTSMNVNEIFMAIAKKLPKNEPQNPGANSARGRGVDLTEPAQPARSQCCSN
notes: Rab5a, Rab GTPase of the endolysosomal trafficking pathway; endogenous in mouse brain microvascular endothelial cells; source: endogenous, mouse primary brain microvascular endothelial cells (C57BL/6 control; db/db diabetic), in lysate
- binding [3]: binds weakly
- binding [4]: binds

B3: JAM-A (protein, UniProt O88792 27-300)
chain: KGSVYTAQSDVQVPENESIKLTCTYSGFSSPRVEWKFVQGSTTALVCYNSQITAPYADRVTFSSSGITFSSVTRKDNGEYTCMVSEEGGQNYGEVSIHLTVLVPPSKPTISVPSSVTIGNRAVLTCSEHDGSPPSEYSWFKDGISMLTADAKKTRAFMNSSFTIDPKSGDLIFDPVTAFDSGEYYCQAQNGYGTAMRSEAAHMDAVELNVGGIVAAVLVTLILLGLLIFGVWFAYSRGYFERTKKGTAPGKKVIYSQPSTRSEGEFKQTSSFLV
- binding [2]: binds
